The supplement of paper PMC10849652
The list shows a part of the results.

The chains behind the UniProt entries cited, without tags or fusion partners. Where a name states a change or a piece, a line headed by the entry shows the natural chain unless it says otherwise.
UniProt Q9BPX6: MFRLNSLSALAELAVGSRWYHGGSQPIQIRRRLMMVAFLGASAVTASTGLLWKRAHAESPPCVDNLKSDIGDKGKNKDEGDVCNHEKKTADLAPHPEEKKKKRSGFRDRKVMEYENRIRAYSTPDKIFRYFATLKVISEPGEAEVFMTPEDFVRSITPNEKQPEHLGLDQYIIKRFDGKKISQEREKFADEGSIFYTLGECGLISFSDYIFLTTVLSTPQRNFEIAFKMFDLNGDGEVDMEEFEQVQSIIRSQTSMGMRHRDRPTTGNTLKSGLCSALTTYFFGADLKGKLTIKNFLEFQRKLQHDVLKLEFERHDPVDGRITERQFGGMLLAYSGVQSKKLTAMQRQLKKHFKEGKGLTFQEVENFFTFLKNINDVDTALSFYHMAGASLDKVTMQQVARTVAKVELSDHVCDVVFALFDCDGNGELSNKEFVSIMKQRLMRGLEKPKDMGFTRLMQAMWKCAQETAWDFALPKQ
UniProt Q15014, whole entry, looked up: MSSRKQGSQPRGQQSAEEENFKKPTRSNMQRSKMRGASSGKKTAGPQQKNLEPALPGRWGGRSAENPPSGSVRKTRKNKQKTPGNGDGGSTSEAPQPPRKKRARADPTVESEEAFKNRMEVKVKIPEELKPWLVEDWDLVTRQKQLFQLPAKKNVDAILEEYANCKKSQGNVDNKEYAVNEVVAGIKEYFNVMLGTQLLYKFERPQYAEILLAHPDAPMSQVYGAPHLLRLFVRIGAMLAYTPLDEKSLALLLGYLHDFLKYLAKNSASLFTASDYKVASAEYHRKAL
UniProt Q8TDZ2: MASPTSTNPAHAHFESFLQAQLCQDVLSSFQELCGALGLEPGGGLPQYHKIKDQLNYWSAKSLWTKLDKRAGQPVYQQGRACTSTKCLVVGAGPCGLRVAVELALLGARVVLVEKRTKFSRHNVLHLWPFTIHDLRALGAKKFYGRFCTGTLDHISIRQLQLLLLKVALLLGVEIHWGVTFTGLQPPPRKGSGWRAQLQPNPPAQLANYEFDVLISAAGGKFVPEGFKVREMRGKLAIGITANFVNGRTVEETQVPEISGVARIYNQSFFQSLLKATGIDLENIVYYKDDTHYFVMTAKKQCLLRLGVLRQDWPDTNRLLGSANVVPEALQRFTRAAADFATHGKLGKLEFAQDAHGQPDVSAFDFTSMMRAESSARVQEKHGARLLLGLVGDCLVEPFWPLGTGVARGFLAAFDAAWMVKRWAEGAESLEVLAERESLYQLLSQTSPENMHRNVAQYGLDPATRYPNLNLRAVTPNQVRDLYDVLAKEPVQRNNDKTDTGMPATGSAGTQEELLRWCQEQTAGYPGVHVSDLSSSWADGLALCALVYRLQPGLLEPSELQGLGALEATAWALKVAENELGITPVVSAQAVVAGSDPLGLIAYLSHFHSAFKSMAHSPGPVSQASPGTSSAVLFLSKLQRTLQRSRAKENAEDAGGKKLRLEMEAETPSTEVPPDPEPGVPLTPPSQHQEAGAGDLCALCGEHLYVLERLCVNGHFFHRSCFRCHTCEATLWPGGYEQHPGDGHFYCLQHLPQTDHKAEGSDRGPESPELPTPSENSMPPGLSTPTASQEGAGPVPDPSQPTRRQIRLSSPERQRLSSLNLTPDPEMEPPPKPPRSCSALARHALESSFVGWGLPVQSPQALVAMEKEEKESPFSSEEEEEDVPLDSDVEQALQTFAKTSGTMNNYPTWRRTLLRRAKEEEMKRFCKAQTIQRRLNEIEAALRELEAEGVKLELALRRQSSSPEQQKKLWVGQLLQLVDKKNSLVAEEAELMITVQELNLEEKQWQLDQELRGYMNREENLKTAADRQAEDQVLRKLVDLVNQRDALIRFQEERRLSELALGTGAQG
UniProt Q9UL63, whole entry, looked up: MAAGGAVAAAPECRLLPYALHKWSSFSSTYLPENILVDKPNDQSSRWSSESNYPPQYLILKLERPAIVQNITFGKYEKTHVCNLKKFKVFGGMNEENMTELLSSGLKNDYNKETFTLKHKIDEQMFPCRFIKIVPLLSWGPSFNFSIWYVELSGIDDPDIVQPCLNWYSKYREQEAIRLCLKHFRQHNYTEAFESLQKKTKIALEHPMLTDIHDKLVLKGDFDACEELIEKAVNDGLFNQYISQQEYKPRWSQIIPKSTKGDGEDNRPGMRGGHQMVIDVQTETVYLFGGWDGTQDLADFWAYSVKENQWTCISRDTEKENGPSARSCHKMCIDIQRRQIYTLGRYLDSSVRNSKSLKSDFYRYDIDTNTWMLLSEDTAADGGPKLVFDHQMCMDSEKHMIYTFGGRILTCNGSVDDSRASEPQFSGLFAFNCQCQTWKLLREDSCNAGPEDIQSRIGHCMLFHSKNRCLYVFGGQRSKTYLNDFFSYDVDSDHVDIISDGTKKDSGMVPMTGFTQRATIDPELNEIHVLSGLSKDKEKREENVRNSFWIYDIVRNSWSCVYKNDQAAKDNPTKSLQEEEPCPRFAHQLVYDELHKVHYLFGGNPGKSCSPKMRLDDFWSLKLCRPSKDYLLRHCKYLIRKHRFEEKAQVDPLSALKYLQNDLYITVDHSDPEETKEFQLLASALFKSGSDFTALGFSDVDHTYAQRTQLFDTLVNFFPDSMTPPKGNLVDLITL
UniProt Q7Z3U7: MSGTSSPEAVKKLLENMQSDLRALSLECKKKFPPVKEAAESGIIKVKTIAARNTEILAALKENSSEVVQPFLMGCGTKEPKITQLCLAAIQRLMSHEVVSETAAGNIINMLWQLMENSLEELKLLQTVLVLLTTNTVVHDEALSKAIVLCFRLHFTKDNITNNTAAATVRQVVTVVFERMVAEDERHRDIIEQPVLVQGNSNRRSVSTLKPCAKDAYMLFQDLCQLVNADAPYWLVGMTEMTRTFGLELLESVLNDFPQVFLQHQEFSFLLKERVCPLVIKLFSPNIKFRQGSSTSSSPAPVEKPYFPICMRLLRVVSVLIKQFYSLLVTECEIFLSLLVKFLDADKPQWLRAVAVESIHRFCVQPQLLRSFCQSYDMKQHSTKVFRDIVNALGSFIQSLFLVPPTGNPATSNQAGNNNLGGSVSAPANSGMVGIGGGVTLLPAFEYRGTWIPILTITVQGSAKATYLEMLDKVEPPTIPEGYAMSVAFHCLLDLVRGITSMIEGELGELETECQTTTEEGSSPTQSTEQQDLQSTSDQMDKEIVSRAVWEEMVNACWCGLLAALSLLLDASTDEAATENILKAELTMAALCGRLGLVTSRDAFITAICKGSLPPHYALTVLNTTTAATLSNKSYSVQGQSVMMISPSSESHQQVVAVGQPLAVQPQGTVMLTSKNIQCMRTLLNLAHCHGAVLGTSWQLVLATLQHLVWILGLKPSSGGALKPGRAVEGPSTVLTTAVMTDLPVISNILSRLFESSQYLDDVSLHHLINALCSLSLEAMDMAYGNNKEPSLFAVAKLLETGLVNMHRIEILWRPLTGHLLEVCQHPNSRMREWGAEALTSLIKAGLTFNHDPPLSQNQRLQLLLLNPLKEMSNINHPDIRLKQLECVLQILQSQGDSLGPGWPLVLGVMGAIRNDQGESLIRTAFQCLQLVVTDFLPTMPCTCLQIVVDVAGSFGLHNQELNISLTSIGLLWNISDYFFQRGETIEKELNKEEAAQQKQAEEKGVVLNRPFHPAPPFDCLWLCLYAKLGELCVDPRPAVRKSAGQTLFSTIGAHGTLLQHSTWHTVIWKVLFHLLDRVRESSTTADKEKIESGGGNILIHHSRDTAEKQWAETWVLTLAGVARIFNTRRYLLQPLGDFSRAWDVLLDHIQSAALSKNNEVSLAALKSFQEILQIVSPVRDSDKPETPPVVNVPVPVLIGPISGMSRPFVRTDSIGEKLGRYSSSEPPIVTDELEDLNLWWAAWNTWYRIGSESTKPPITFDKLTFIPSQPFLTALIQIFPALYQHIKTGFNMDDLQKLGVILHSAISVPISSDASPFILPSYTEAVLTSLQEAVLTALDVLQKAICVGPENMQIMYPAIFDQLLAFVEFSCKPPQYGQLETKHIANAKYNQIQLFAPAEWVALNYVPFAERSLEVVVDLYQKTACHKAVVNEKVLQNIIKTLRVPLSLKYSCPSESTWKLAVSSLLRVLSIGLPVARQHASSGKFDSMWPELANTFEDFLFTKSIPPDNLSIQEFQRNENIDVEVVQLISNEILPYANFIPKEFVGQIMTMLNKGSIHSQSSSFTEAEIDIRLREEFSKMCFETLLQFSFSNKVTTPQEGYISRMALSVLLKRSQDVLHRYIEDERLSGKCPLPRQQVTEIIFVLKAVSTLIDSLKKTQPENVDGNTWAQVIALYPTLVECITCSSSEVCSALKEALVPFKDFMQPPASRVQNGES
UniProt Q96EN8: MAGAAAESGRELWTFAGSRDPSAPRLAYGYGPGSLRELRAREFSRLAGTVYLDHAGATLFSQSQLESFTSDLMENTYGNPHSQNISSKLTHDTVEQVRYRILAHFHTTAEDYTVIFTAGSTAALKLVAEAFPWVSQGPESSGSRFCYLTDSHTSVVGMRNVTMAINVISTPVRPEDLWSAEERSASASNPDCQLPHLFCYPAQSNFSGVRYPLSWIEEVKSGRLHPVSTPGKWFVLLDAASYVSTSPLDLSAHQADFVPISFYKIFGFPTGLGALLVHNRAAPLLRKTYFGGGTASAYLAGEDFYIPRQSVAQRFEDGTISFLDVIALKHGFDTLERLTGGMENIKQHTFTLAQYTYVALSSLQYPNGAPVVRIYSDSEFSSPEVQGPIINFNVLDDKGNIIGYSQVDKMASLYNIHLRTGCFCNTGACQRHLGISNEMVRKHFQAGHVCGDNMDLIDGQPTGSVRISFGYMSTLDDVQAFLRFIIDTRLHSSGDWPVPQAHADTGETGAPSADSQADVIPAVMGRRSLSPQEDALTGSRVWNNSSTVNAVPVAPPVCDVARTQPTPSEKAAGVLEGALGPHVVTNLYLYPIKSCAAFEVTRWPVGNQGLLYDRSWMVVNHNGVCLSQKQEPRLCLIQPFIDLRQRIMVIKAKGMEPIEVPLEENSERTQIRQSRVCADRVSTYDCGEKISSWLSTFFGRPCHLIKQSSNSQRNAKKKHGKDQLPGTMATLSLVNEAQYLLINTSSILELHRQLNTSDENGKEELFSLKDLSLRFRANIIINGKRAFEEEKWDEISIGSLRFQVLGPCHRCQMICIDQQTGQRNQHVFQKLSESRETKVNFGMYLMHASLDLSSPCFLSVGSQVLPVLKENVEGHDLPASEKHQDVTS
UniProt Q7L9L4: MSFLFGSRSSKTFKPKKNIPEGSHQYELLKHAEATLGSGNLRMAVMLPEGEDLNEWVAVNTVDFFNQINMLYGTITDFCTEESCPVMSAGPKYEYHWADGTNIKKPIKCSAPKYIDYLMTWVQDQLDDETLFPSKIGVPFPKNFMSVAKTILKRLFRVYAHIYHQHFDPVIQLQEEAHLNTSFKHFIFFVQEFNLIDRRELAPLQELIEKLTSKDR
UniProt Q9NYP9: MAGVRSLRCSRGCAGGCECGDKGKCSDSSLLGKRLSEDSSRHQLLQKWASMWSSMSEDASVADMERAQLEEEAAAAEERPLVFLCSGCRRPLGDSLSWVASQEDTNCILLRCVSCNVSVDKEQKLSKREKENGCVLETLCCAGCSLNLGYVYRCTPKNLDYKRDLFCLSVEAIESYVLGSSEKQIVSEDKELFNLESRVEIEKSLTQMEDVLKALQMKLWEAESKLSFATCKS
UniProt Q8IY33: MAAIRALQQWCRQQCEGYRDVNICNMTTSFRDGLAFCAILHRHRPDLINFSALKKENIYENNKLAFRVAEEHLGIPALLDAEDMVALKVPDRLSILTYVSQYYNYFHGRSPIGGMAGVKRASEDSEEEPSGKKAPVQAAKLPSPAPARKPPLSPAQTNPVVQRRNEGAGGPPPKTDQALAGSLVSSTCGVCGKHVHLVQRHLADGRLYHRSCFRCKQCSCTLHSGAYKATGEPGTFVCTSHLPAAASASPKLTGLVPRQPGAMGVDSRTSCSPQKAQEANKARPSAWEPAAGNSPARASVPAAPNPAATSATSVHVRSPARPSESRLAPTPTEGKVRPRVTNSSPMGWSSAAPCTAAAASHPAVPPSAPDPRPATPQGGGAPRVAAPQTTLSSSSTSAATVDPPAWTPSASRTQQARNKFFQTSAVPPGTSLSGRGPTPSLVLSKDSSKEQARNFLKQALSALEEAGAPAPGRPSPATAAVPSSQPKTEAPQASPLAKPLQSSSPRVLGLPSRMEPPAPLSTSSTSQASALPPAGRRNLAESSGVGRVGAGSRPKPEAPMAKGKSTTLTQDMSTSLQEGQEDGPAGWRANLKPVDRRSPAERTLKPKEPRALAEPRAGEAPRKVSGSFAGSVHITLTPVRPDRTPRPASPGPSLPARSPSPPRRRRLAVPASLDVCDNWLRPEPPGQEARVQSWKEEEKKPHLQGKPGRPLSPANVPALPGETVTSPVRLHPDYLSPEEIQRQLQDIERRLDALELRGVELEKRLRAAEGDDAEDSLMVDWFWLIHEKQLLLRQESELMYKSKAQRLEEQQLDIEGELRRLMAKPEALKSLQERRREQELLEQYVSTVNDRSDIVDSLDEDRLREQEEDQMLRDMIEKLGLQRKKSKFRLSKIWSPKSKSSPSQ

Experiments:
Experiment in all cases: log2 fold change, soluble protein after heating vs DMSO (PISA); higher = thermal stabilisation; K562 cells, 10 uM, 30 min; active = over 0.2 and 3.5 SD of the protein, either way, in both replicates (recomputed)
[1] = compound: CC1=C(C=C(C=C1)NC(=O)C2=CC(=CC=C2)C(C)(C)C#N)NC3=CC4=C(C=C3)N=CN(C4=O)C
Summary of the method: (§1)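 Soluble protein was quantified by TMTpro 16plex LC-MS/MS after channel sums were equalised. It was obtained as the supernatant after 21,000xg for 90 min from pooled aliquots of K562 cells (2×10^6 cells/mL, 10 μM compound, 30 min) heated for 3 min across 48°C-58°C and extracted in PBS with 0.5% NP-40 at 4°C. Thermal stability values are relative to control samples and come from duplicates. They are given as log2 fold changes.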

[2] = compound: CC1=C(C=C(C=C1)NC(=O)C2=CC(=CC=C2)N(C)C)NC(=O)C3=CC=C(C=C3)O
Summary of the method: as §1

[3] = compound: CC1=CC=C(C=C1)SC2=C3C=C(SC3=CN=C2)C(=O)N
Summary of the method: as §1

[4] = compound: CC1=NC(=CC=C1)C2=C(N=C(N2)C(C)(C)C)C3=CC4=NC=CN=C4C=C3
Summary of the method: as §1

Nexturastat A = compound: CCCCN(Cc1ccc(C(=O)NO)cc1)C(=O)Nc1ccccc1 [Nexturastat A]
Summary of the method: as §1

vemurafenib = compound: CCCS(=O)(=O)Nc1ccc(F)c(C(=O)c2c[nH]c3ncc(-c4ccc(Cl)cc4)cc23)c1F [vemurafenib]
Summary of the method: as §1

[5] = compound: CCCS(=O)(=O)Nc1ccc(F)c(C(=O)c2c[nH]c3ncc(Cl)cc23)c1F
Summary of the method: as §1

[6] = compound: CCCc1cc(C)[nH]c(=O)c1CNC(=O)c1cc(-c2ccnc(N3CCN(C)CC3)c2)cc2c1cnn2C(C)C
Summary of the method: as §1

givinostat = compound: CCN(CC)Cc1ccc2cc(COC(=O)Nc3ccc(C(=O)NO)cc3)ccc2c1 [givinostat]
Summary of the method: as §1

barasertib = compound: CCN(CCCOc1ccc2c(Nc3cc(CC(=O)Nc4cccc(F)c4)[nH]n3)ncnc2c1)CCOP(=O)(O)O [barasertib]
Summary of the method: as §1

Measured: log2 fold change

MICU1 isoform 3 (UniProt Q9BPX6)
inactive: [1] -0.002 | [2] 0.052 | [3] -0.003 | [4] -0.028 | Nexturastat A 0.117 | vemurafenib -0.049 | [5] 0.042 | [6] -0.001 | givinostat 0 | barasertib 0.012

MORF4L2 (UniProt Q15014)
inactive: [1] -0.004 | [2] -0.061 | [3] -0.015 | [4] -0.083 | Nexturastat A 0.129 | vemurafenib 0.009 | [5] 0.036 | [6] 0.038 | givinostat -0.007 | barasertib -0.03

MRPL34 (UniProt Q9BQ48)
inactive: [1] -0.022 | [2] -0.01 | [3] 0.019 | [4] -0.052 | Nexturastat A 0.259 | vemurafenib -0.062 | [5] 0.051 | [6] 0.066 | givinostat -0.021 | barasertib 0.022

MICAL1 isoform 4 (UniProt Q8TDZ2)
inactive: [1] 0.1 | [2] -0.096 | [3] 0.021 | [4] 0.116 | Nexturastat A 0.2 | vemurafenib 0.012 | [5] 0.136 | [6] 0.11 | givinostat 0.186

MINK1 (UniProt Q8N4C8)
inactive: [1] -0.04 | [2] 0.038 | [3] -0.003 | [4] 0.029 | Nexturastat A -0.007 | vemurafenib -0.004 | [5] 0.024 | [6] 0.003 | givinostat -0.007 | barasertib -0.016

MKLN1 (UniProt Q9UL63)
inactive: [1] 0.026 | [2] -0.035 | [3] -0.016 | [4] -0.04 | Nexturastat A 0.059 | vemurafenib -0.05 | [5] -0.005 | [6] 0.038 | givinostat -0.01 | barasertib 0.008

MNAT1 (UniProt P51948)
inactive: [1] 0.004 | [2] -0.006 | [3] 0.001 | [4] 0.001 | Nexturastat A 0.043 | vemurafenib -0.006 | [5] 0.039 | [6] -0.037 | givinostat 0.069 | barasertib -0.003

MICAL3 (UniProt Q7RTP6)
inactive: [1] 0.016 | [2] 0.061 | [3] -0.012 | [4] 0.001 | Nexturastat A -0.035 | vemurafenib 0.026 | [5] -0.065 | [6] 0.045 | givinostat 0.005 | barasertib 0.004

MRPL51 (UniProt Q4U2R6)
inactive: [1] 0.026 | [2] -0.005 | [3] -0.065 | [4] -0.12 | Nexturastat A 0.17 | vemurafenib -0.032 | [5] -0.042 | [6] 0.041 | givinostat 0.039 | barasertib -0.085

MPG (UniProt P29372)
inactive: [1] -0.011 | [2] 0.012 | [3] 0.015 | [4] 0.051 | Nexturastat A 0.086 | vemurafenib -0.007 | [5] 0 | [6] -0.002 | givinostat 0.017 | barasertib -0.002

MRPL44 (UniProt Q9H9J2)
inactive: [1] 0.059 | [2] -0.048 | [3] -0.029 | [4] -0.047 | Nexturastat A 0.192 | vemurafenib -0.077 | [5] -0.039 | [6] 0.091 | givinostat 0.04 | barasertib -0.043

MRPL20 (UniProt Q9BYC9)
inactive: [1] 0.054 | [2] -0.072 | [3] -0.072 | [4] -0.186 | Nexturastat A 0.151 | vemurafenib -0.103 | [5] -0.039 | [6] 0.055 | givinostat 0.058 | barasertib -0.048

MRPL41 (UniProt Q8IXM3)
inactive: [1] -0.02 | [2] -0.037 | [3] -0.077 | [4] 0 | Nexturastat A 0.26 | vemurafenib -0.174 | [5] -0.068 | [6] 0.029 | givinostat -0.078 | barasertib 0.007

MICOS10 (UniProt Q5TGZ0)
inactive: [1] 0.171 | [2] -0.177 | [3] 0.148 | [4] -0.002 | Nexturastat A -0.218 | vemurafenib 0.067 | [5] 0.049 | [6] -0.106 | givinostat -0.168 | barasertib 0.137

MRPL4 (UniProt Q9BYD3)
inactive: [1] 0.069 | [2] -0.044 | [3] 0.002 | [4] -0.06 | Nexturastat A 0.096 | vemurafenib -0.082 | [5] -0.021 | [6] 0.012 | givinostat -0.099 | barasertib -0.136

MICOS13 (UniProt Q5XKP0)
inactive: [1] 0.041 | [2] -0.06 | [3] 0.056 | [4] 0.065 | Nexturastat A -0.065 | vemurafenib 0.018 | [5] 0.077 | [6] -0.069 | givinostat 0.027 | barasertib 0.034

MRPL53 (UniProt Q96EL3)
inactive: [1] 0.051 | [2] -0.037 | [3] -0.032 | [4] -0.014 | Nexturastat A 0.18 | vemurafenib -0.135 | [5] -0.018 | [6] 0.038 | givinostat -0.034 | barasertib -0.059

MRPL45 (UniProt Q9BRJ2)
inactive: [1] -0.041 | [2] -0.082 | [3] -0.087 | [4] -0.057 | Nexturastat A 0.166 | vemurafenib -0.022 | [5] -0.008 | [6] 0.086 | givinostat 0.052 | barasertib -0.091

MLYCD (UniProt O95822)
inactive: [1] 0.06 | [2] 0.009 | [3] 0.018 | [4] 0.015 | Nexturastat A -0.006 | vemurafenib 0.03 | [5] 0.027 | [6] 0.08 | givinostat 0.005 | barasertib 0.052

MON2 isoform 5 (UniProt Q7Z3U7)
inactive: [1] -0.002 | [2] -0.009 | [3] -0.036 | [4] 0.018 | Nexturastat A 0 | vemurafenib 0.017 | [5] 0.085 | [6] 0.046 | givinostat 0.029 | barasertib 0.039

MRPL11 (UniProt Q9Y3B7)
inactive: [1] 0.064 | [2] -0.04 | [3] -0.068 | [4] -0.031 | Nexturastat A 0.193 | vemurafenib -0.033 | [5] -0.001 | [6] 0.065 | givinostat 0.056 | barasertib -0.046

MOCOS (UniProt Q96EN8)
inactive: [1] 0.045 | [2] 0.005 | [3] -0.027 | [4] -0.09 | Nexturastat A -0.039 | vemurafenib -0.039 | [5] 0.028 | [6] -0.054 | givinostat -0.023 | barasertib 0.062

MRPL55 isoform 2 (UniProt Q7Z7F7)
inactive: [1] 0.121 | [2] -0.055 | [3] 0.074 | [4] -0.064 | Nexturastat A 0.017 | vemurafenib -0.023 | [5] 0.003 | [6] -0.036 | givinostat 0.059 | barasertib 0.037

MRPL28 (UniProt Q13084)
inactive: [1] 0.028 | [2] -0.034 | [3] -0.072 | [4] -0.021 | Nexturastat A 0.085 | vemurafenib -0.069 | [5] -0.007 | [6] 0.15 | givinostat -0.026 | barasertib -0.046

MLEC (UniProt Q14165)
inactive: [1] 0 | [2] -0.001 | [3] -0.03 | [4] -0.026 | Nexturastat A 0.031 | vemurafenib 0 | [5] -0.017 | [6] -0.07 | givinostat 0.003 | barasertib -0.019

MKRN2 (UniProt Q9H000)
inactive: [1] 0.147 | [2] 0.059 | [3] -0.002 | [4] 0.086 | Nexturastat A 0.091 | vemurafenib 0.095 | [5] 0.035 | [6] -0.045 | givinostat 0.083 | barasertib -0.098

Quoted at random: two entries already listed, in no set order.
MOCOS (UniProt Q96EN8)
inactive: [1] 0.045 | [2] 0.005 | [3] -0.027 | [4] -0.09 | Nexturastat A -0.039 | vemurafenib -0.039 | [5] 0.028 | [6] -0.054 | givinostat -0.023 | barasertib 0.062

MICAL1 isoform 4 (UniProt Q8TDZ2)
inactive: [1] 0.1 | [2] -0.096 | [3] 0.021 | [4] 0.116 | Nexturastat A 0.2 | vemurafenib 0.012 | [5] 0.136 | [6] 0.11 | givinostat 0.186

Further results

MOB1B isoform 2 (UniProt Q7L9L4)
inactive: [1] 0.014 | [2] 0.011 | [3] 0.02 | [4] 0.038 | Nexturastat A -0.022 | vemurafenib 0.017 | [5] 0.032 | [6] -0.079 | givinostat 0.012 | barasertib 0.012

MIS18A (UniProt Q9NYP9)
inactive: [1] 0.006 | [2] -0.021 | [3] 0.008 | [4] 0.064 | Nexturastat A 0.048 | vemurafenib 0.03 | [5] 0.062 | [6] -0.01 | givinostat -0.035 | barasertib 0.026

MICALL2 (UniProt Q8IY33)
inactive: [1] 0.033 | [2] -0.052 | [3] 0.051 | [4] -0.065 | Nexturastat A -0.027 | vemurafenib 0.107 | [5] 0.018 | [6] 0.039 | givinostat 0.042 | barasertib 0.052

MRPL43 isoform 4 (UniProt Q8N983)
inactive: [1] 0.116 | [2] -0.04 | [3] -0.052 | [4] -0.068 | Nexturastat A 0.129 | vemurafenib -0.108 | [5] -0.073 | [6] 0.008 | givinostat 0.061 | barasertib -0.004
